In patent publication US11673323B2, “Fluorescent binders for use in monitoring additive manufacturing processes” (General Electric Company, priority 2020, dated 2023):
Some entries share one result that the patent states for a list of compounds.

Assay: Solubility of neat fluorescent dye in water-based PVA/PAA binder solution
Details: 0.5 wt % fluorescent dye in binder solution (PVA, PAA, ethylene glycol, ethylene glycol butyl ether, water), stirred at 50-70° C.
Procedure: To determine whether neat dyes (e.g., unencapsulated) could be incorporated into binder solutions, various fluorescent materials were added to a binder solution including 1-7 wt % PVA, 0.5-3 wt % PAA, 2-6 wt % ethylene glycol, 4-10 wt % ethylene glycol butyl ether, and the balance water to form Samples F-H, and Comparative Samples 1-5. In particular, from 0.2-0.5 wt % of the fluorescent material (DayGlo, UMCCorp, Aldrich) was added to the binder solution and stirred on a hot plate at 50-70° C. to dissolve the dye into the binder solution.

CCCN(CCO)c1nc(Nc2ccccc2)nc(Nc2ccc(/C=C/c3ccc(Nc4nc(Nc5ccccc5)nc(N(CCO)CCO)n4)cc3S(=O)(=O)[O-])c(S(=O)(=O)[O-])c2)n1.[Na+].[Na+] [FB 28]
Solubility at 0.5 wt % (listed as Comparative Sample 2): did not exhibit good solubility

O=S(=O)([O-])c1cc(Nc2nc(CCO)nc(Nc3ccccc3)n2)ccc1/C=C/c1ccc(Nc2nc(NCO)nc(Nc3ccccc3)n2)cc1S(=O)(=O)[O-].[Na+].[Na+] [FB 85]
Solubility at 0.5 wt % (listed as Comparative Sample 4): did not exhibit good solubility

CCCN(CCC)c1nc(Nc2ccccc2)nc(Nc2ccc(/C=C/c3ccc(Cc4nc(Cc5ccccc5)nc(N(OCC)OCC)n4)cc3S(=O)(=O)[O-])c(S(=O)(=O)[O-])c2)n1.[Na+].[Na+] [FB 113]
Solubility at 0.5 wt % (listed as Comparative Sample 5): did not exhibit good solubility
